Results published in doi:10.1101/2020.01.13.905190.

Protein sequences, listed by entry. Tags and fused reporters are not part of them. Residues count along the entry.
UniProt P00451, residues 20-2351: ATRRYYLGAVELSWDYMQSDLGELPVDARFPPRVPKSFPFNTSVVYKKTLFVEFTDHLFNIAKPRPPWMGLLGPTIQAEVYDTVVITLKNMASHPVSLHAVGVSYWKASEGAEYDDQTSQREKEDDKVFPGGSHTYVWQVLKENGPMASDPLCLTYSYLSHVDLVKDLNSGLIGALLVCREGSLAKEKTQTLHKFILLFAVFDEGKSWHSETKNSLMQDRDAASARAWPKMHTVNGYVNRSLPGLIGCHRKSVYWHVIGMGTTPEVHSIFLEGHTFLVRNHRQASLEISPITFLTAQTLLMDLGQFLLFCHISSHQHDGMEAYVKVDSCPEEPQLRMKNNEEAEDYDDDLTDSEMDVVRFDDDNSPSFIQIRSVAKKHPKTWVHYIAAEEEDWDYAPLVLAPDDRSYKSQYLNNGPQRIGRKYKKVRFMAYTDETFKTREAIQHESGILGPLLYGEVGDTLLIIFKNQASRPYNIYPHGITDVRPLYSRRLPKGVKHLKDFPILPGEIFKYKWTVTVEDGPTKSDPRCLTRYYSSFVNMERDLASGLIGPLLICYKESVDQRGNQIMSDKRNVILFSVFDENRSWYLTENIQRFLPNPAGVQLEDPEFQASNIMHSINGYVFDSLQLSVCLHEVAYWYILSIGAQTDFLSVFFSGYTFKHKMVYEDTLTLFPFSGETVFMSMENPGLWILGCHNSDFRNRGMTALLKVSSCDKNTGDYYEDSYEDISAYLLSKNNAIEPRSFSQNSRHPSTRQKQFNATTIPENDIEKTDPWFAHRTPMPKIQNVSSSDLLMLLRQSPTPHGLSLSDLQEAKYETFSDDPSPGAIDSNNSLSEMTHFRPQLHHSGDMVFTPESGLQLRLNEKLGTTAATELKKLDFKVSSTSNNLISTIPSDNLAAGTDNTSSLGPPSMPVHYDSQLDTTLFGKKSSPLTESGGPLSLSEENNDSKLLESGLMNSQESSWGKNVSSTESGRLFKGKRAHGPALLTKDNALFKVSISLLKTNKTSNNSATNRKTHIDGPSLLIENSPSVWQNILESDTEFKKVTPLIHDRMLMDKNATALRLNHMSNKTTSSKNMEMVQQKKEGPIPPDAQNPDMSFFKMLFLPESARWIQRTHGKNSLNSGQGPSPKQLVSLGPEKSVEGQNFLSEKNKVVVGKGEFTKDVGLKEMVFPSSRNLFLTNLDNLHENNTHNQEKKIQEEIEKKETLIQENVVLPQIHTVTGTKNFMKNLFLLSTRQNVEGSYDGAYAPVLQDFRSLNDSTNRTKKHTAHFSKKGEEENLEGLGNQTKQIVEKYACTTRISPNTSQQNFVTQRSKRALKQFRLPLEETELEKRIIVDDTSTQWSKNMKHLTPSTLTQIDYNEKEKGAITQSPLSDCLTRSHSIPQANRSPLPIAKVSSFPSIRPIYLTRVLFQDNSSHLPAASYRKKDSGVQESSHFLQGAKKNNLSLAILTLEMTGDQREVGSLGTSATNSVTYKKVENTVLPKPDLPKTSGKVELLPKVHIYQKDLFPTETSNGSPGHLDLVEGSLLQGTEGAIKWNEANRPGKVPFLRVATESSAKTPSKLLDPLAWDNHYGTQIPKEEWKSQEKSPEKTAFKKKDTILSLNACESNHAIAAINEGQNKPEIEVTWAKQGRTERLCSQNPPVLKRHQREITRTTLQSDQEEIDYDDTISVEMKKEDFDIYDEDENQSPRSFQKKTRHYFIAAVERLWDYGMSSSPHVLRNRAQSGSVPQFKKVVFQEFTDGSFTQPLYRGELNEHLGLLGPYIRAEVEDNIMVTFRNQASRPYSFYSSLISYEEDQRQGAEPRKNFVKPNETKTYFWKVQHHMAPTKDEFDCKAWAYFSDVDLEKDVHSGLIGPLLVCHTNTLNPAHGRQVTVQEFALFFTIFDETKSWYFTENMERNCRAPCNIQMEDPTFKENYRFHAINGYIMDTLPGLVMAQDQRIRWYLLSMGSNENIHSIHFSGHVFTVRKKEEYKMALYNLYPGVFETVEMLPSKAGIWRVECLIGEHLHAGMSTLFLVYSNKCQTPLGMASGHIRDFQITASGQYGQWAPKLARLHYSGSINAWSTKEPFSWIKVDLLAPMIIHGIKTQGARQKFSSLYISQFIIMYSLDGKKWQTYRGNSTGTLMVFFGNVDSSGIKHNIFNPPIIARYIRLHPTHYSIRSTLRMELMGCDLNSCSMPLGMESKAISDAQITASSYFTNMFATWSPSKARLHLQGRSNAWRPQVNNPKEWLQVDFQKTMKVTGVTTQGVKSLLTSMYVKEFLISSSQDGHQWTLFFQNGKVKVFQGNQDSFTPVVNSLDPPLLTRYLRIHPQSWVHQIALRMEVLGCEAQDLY
UniProt Q8K3H7, residues 18-417: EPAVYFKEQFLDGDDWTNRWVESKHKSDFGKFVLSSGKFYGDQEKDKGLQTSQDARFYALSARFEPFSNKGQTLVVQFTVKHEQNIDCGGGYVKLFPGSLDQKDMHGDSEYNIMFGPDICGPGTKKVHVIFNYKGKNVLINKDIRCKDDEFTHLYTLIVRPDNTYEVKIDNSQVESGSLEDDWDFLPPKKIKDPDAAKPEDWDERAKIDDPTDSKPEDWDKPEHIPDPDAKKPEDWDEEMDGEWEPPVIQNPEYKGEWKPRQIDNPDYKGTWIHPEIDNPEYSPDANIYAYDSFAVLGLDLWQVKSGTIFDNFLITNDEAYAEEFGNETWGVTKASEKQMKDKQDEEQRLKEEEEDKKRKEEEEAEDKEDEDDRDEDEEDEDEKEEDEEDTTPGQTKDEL
UniProt G3I8R9, residues 19-654: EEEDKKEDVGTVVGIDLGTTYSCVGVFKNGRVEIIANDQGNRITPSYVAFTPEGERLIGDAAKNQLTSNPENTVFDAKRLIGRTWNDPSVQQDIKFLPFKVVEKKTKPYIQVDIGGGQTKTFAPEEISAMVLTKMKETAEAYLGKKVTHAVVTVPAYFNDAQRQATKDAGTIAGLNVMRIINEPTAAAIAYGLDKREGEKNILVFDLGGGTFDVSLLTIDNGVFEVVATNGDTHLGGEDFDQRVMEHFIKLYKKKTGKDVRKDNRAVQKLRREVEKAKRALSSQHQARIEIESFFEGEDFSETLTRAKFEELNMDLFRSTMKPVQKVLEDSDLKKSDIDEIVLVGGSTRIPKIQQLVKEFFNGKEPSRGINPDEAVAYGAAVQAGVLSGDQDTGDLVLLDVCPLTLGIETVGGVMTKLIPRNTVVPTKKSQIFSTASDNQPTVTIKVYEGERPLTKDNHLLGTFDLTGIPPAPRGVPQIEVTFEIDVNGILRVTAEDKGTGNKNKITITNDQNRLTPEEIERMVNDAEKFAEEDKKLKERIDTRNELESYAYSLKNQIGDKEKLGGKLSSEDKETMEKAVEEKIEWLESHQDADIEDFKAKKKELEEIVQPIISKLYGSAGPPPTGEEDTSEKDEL

Target: human FVIII expressed in H9 CHO cells (human) (UniProt P00451)
Test: affinity purification with mass spectrometry

- binding: binds
Molecule: CRT (endogenous in H9 CHO cells) (from UniProt Q8K3H7 18-417)

- binding: binds
Molecule: BiP/HSPA5 (endogenous in H9 CHO cells) (from UniProt G3I8R9 19-654)

- binding: binds
B1: GRP170 (endogenous in H9 CHO cells) (protein, UniProt Q60432 33-999)
chain: LAVMSVDLGSESMKVAIVKPGVPMEIVLNKESRRKTPVTVTLKENERFLGDSAAGMAIKNPKATLRYFQHLLGKQADNPHVALYRDRFPEHELNIDPQRQTVRFQISPQLQFSPEEVLGMVLNYSRSLAEDFAEQPIKDAVITVPAFFNQAERRAVLQAARMAGLKVLQLINDNTATALSYGVFRRKDINSTAQNVMFYDMGSGTTVCTIVTYQTVKTKEAGMQPQLQIRGVGFDRTLGGLEMELRLREHLAKLFNEQRRGQKAKDVRENPRAMAKLLREANRLKTVLSANADHMAQIEGLMDDVDFKAKVTRVESEELCADLFERVPGPVQQALQSAEMSLDEIEQVILVGGATRVPKVQEVLLKAVGKEELGKNINADEAAAMGAVYQAAALSKAFKVKPFVVRDAVIYPILVEFTREVEEEPGVRSLKHNKRVLFSRMGPYPQGKVITFNRYSHDFNFHINYGDLGFLGPEDLRVFGSQNLTTVKLKGVGESLKKYPDYESKGIKAHFNLDESGVLSLDRVESVFETLVEDSPEEESTLTKLGNTISSLFGGGTSSDAKENGTDAVQEEEESPTEGSKDEPGEQGDLKEETEAPVEDTSQPPPPEPKGDAAPEGEKPDEKESGGKSEAQKPEEKGQSGPEGVPPAPEEEKKQKPARKQKMVEEIGVELAVLDLPDLPEDELARSVKKLEDLTLRDLEKQEREKAANSLEAFIFETQDKLYQPEYQEVSTEEQREEISGKLSATSTWLEDEGFGATTVMLKEKLAELKKLCQGLFFRVEERRKWPERLSALDNLLNHSSIFLKGARLIPEMDQIFTEVEMTTLEKVINDTWAWKNATLAEQAKLPATEKPVLLSKDIEAKMMALDREVQYLLNKAKFTKPRPRPKDKNGTRTEPPLNATAGDQEEKVIPPAGQPEEAKPILEPDKEETTTEPTDSEPLELGGPGAESEPKEQTAGQKRSSKNDEL

No constants are given. Whether binding was seen depends on the method and setting. Binding seen in cells or lysates may run through a third protein. These calls come from enrichment with a bait or labelling near it, and not all partners need be listed. One block for each molecule: values may come before it.
